Screening data, single-dose tests

Mtb glucose medium: 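Whole-cell growth test on Mycobacterium tuberculosis, read after 3 days in glucose-containing 7H9 medium; the read-out is not stated. Concentration: 500 µM. Higher reads as more growth inhibition (inferred: compounds with an IC50 in retests scored well above the rest). Of about 18,000 compounds tested this way, about 1,400 (7.9%) reached 50% or more in at least one test.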
Mtb cholesterol medium: 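Phenotypic screen: M. tuberculosis growth, cholesterol and DPPC medium, 4 days; the read-out is not stated. Compounds at 500 µM. Direction is inferred from retests: higher values go with more growth inhibition. Of about 18,000 compounds tested this way, about 900 (5%) reached 50% or more in at least one test.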

Results are given as percent effect.
How 0% and 100% were set is not recorded. Most values in the screen are low, and negative values occur.
The compounds are a random part of those screened.

Compound,Mtb glucose medium,Mtb cholesterol medium
COCCOCC(=O)NCc1c(C)cc(C)nc1OC,13.84%,13.73%
COc1ncccc1NC(=O)C1CCN(C(C)=O)CC1,-48.32%,-50.31%
CNC(=O)c1ccnc(-c2ccnc3c2ccn3C)c1,43.04%,16.62%
CC1(C)CCN1C(=O)c1cccc2c1OCCO2,-11.12%,-14.21%
Fc1cc(Cl)cnc1N1CCCNCC1,58.84%,46.53%
Cc1nc(C(C)C)sc1C(=O)NC[C@@H]1CCNC[C@H]1O,4.489%,28.52%
CCS(=O)(=O)c1ccc(NC(C)c2ccncc2)cc1 (centres unmarked),40.75%,25.52%
CC1(N)Cc2ccccc21 (centres unmarked),0.06852%,-5.6%
Cc1ncc(C(=O)NCCN2CCCC2)s1,-4.466%,-26.3%
O=C(CSCc1ccccc1Cl)N1CCOCC(O)C1 (centres unmarked),33.82%,-6.422%
CC1CCCN(C(=O)CSCC(N)=O)CC1 (centres unmarked),38.55%,25.57%
O=C(Cn1ccnc1)Nc1ccccc1F,-1.095%,-3.107%
CN(CCCOc1ccccc1)CC(=O)NCCC#N,8.784%,3.186%
CN(C)C(=O)N(C)C1CCNC1 (centres unmarked),0.5402%,-8.381%
COc1cc(OC)c(NC(=O)Cn2ccnc2)cc1Cl,72.67%,48.66%
CN1CCCC(C(=O)NCCCn2ccnn2)C1 (centres unmarked),-6.444%,-12.95%
Cc1c[nH]c(CN(C)C(=O)CSCCN2CCCC2)n1,14.39%,1.852%
CC1C(=O)NCCN1C(=O)c1ccc(F)c(C#N)c1 (centres unmarked),-8.115%,-2.997%
CN1CCN(S(=O)(=O)N2CCCC2)Cc2ccccc21,67.99%,54.84%
CC(C)(C)NC(=O)CNc1nc2ccccc2c(=O)[nH]1,5.013%,7.174%
CSc1ccc(C(=O)NCCCc2ncc[nH]2)cc1,2.921%,15.57%
CCC1c2nccn2CCCN1C(=O)Cn1cccn1 (centres unmarked),20.08%,-19.52%
CCNS(=O)(=O)C1CCN(c2ccncc2Cl)C1 (centres unmarked),12.45%,9.017%
N[C@@H]1CCO[C@H]1c1ccnn1CC1CC1,-9.974%,-6.427%
O=C(Cn1cc(Br)cn1)NC1CCc2nccn2C1 (centres unmarked),7.079%,-16.11%
NC(=O)CN1CCC(NC(=O)c2cc(Br)c[nH]2)CC1,-7.484%,-9.407%
CC1CCCN(S(=O)(=O)N(C)Cc2cc[nH]n2)C1 (centres unmarked),36.29%,27.99%
COc1cccc(C2=NN=C(NC3CC3)SC2)c1,79.76%,84.07%
Cc1ccc(NC(=O)C2=NN(C)C(=O)CC2)cc1Cl,-3.173%,7.374%
CC(C(=O)Nc1cnc2ccccc2c1)S(C)(=O)=O (centres unmarked),21.07%,-17.85%
O=C(NCCN1CCCC1)Nc1cccc2cn[nH]c12,49.43%,17.53%
CC(CC(=O)Nc1ccccc1)n1ccnc1 (centres unmarked),11.73%,18.34%
COCCn1cc(Br)cn1,-5.274%,-10.61%
O=C1CN(Cc2nc3ccsc3c(=O)[nH]2)CCN1,3.395%,4.663%
Cc1cnn(CC(C)NCCC(=O)NC(C)C)c1 (centres unmarked),-9.714%,-9.401%
CN(C)S(=O)(=O)c1ccc2[nH]c(=O)oc2c1,15.21%,14.21%
NCCCN1C(=O)c2ccccc2C1=O,6.213%,27.97%
COCCOc1ccc(NC(=O)c2ccoc2)cn1,21.02%,-1.888%
CCC(C(N)=O)N1CCC(c2nncn2C)CC1 (centres unmarked),3.037%,-1.538%
NC(=O)CCN(Cc1ccccc1F)C1CC1,33%,16.18%
CC(=O)c1c[nH]c(C(=O)NCc2cccnc2)c1,-4.448%,-9.929%
CC(NC(=O)c1cnns1)c1ccccc1 (centres unmarked),21.07%,10.61%
C=C(C)COCCNC(=O)c1c(O)cccc1F,50.33%,40.82%
CN1CCO[C@@H]2CCNC[C@@H]21,-5.418%,-1.963%
CC(C)COCC(O)CNc1nnc(C(C)C)s1 (centres unmarked),66.3%,84.49%
N#Cc1cccc(C(=O)NC2CCC(O)CC2)c1 (centres unmarked),0.2358%,-1.609%
CCc1cc(C(=O)NCc2ccncc2)cc(=O)[nH]1,-3.024%,-4.702%
CC[C@H]1COCCN1C(=O)c1ncc(F)cc1F,4.699%,-0.829%
Cc1nnc(SC(C#N)C2CCCCC2)n1CC(N)=O (centres unmarked),22.71%,8.315%
COCCCOC1CN(C(=O)c2cc(F)ccc2C)C1,49.06%,23.23%
O=C(NCC1CCCO1)c1cnn2cccnc12 (centres unmarked),6.99%,-18.58%
CNC(=O)C(C)S(=O)(=O)Cc1cc(C)ccc1C (centres unmarked),13.16%,-4.813%

For reference, 6 entries once more:

Result for CN(C)S(=O)(=O)c1ccc2[nH]c(=O)oc2c1 was Mtb glucose medium: 15.21%; Mtb cholesterol medium: 14.21%.
Result for O=C(NCC1CCCO1)c1cnn2cccnc12 (centres unmarked) was Mtb glucose medium: 6.99%; Mtb cholesterol medium: -18.58%.
Result for COc1cc(OC)c(NC(=O)Cn2ccnc2)cc1Cl was Mtb glucose medium: 72.67%; Mtb cholesterol medium: 48.66%.
Result for CC(CC(=O)Nc1ccccc1)n1ccnc1 (centres unmarked) was Mtb glucose medium: 11.73%; Mtb cholesterol medium: 18.34%.
Result for COCCOc1ccc(NC(=O)c2ccoc2)cn1 was Mtb glucose medium: 21.02%; Mtb cholesterol medium: -1.888%.
Result for CC(NC(=O)c1cnns1)c1ccccc1 (centres unmarked) was Mtb glucose medium: 21.07%; Mtb cholesterol medium: 10.61%.

Data taken from ChEMBL document CHEMBL3988442, “University of Dundee, Small-Polar-MMV Screening Library” (2021).